This data set concerns COX (Cyclooxygenase). As to the kind of experiment: COX activity assay in C-26 cells (PGE2 radioimmunoassay). It counts as cell-based. As to the method:
C-26 cells were plated on 24-well plates using RPMI medium. Different concentrations of the tested compound were added thereto and the cells were incubated for 30 minutes at 37° C. 30 μM exogenic arachidonic acid was then added and incubation was continued for 20 minutes (37° C.), so as to allow the cells to synthesize PGE2. Indomethacin was added thereafter (10 μM), to stop and completely block the activity. Then, the upper solution was removed into clean 24-wells. To the remained cells 100 μl NaOH (1M) were added to induce cytolysis, and the cells were left for later protein measurement. The solution removed to the new 24-well was used for a radioimmunoassay. The COX activity was estimated by calculating the ng PGE2/mg protein parameter.

This is an account of results in patent US8618169B2, “Derivatives of N-phenylanthranilic acid and 2-benzimidazolone as potassium channel and/or neuron activity modulators” (Ramot at Tel-Aviv University Ltd., priority 2002, dated 2013).

Consider `O=C(Cc1ccccc1Nc1c(Cl)cccc1Cl)OCCOCCO` [Compound 7], for which the Hillslope is −2.873.

The compound `Cc1cccc(Nc2ccccc2C(=O)NCCOCCO)c1C` [Compound 5] came in with a Hillslope of −0.4281.

In turn, `Cc1c(Cl)cccc1Nc1ccccc1C(=O)NCCOCCO` [Compound 3] registered a Hillslope of −0.6206.
